PubChem BioAssay AID504791 | Drosophila RNAi Screening Center – 2011
The screen tested about 23,000 reagents; below is a random part of those that have a named target and a result. In the full data, 199 (0.86%) were called active. 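Plate-scaled ratios behind the calls are not deposited; printed light signals are raw; many rows marked increased or decreased are still called inactive.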 A plus sign joins genes that one reagent is predicted to hit. The record does not give: the direction of the score.

Assay: 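Genes of the fly required for silencing by miRNA, siRNA or endo-siRNA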 (primary screen)
Cell system: Drosophila S2-derived reporter cells
Reagents: long dsRNA against Drosophila genes, about 150-250 ng dsRNA per well (siRNA assay); about 80-120 ng (miRNA assay)
Timing: about 5 days (siRNA assay); about 4 days (miRNA assay)
Challenge: copper sulfate induction of reporters: 25 µM (siRNA assay); 200 mM stated (miRNA assay), 1-2 days before reading
Detection: 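Per-well ratio of Renilla over firefly light, expressed relative to that plate's average ratio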
Active means: 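First-pass picks had plate-scaled ratios over 1.5 for the siRNA assay, over 1.6 for the miRNA assay, or under 0.6; two distinct dsRNAs had to score alike on retest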

no.	target	DRSC id	stable siRNA reporter change	stable assay Renilla, run 1 (luminescence)	stable assay firefly, run 1 (luminescence)	Outcome
1	otu (ovarian tumor)	DRSC18811		4956	2.88e5	inactive
2	CG40551 (retired record)	DRSC21229	reporter ratio raised past the hit cutoff	5470	2.74e5	inactive
3	adp (adipose)	DRSC06916		8107	2.84e5	inactive
4	Top3alpha (Topoisomerase 3alpha)	DRSC03460		6826	3.64e5	inactive
5	me31B (maternal expression at 31B)	DRSC03569		36802	4.67e5	inactive
6	alpha-Est10 (alpha-Esterase-10)	DRSC12613		7231	3.37e5	inactive
7	CG32187	DRSC10521		7168	3.55e5	inactive
8	CG32278 + CG14963	DRSC22203		7911	4.63e5	inactive
9	mRpS29 (mitochondrial ribosomal protein S29)	DRSC04398		60878	6.00e5	inactive
10	vex (vexed)	DRSC19481		4428	3.23e5	inactive
11	vex (vexed)	DRSC19651		5048	3.67e5	inactive
12	vex (vexed)	DRSC21843		9005	6.75e5	inactive
13	Tmem131 (Transmembrane protein 131)	DRSC07154		9210	3.17e5	inactive
14	Sps2 (Selenophosphate synthetase 2)	DRSC03441		6634	3.60e5	inactive
15	oaf (out at first)	DRSC00831		7965	4.42e5	inactive
16	Ser6 (Serine protease 6)	DRSC20574		5275	2.79e5	inactive
17	CG5664	DRSC11782		5351	4.17e5	inactive
18	Sec6 (Secretory 6)	DRSC06932		12680	4.14e5	inactive
19	CG15554	DRSC15092		6083	3.51e5	inactive
20	CG17154	DRSC10253		5287	2.99e5	inactive
21	trio	DRSC07928		5644	4.25e5	inactive
22	trio	DRSC08527		6046	3.10e5	inactive
23	trio	DRSC08740		5815	4.22e5	inactive
24	ND-B18 (NADH dehydrogenase (ubiquinone) B18 subunit)	DRSC19947		3527	3.16e5	inactive
25	east (enhanced adult sensory threshold)	DRSC18770		6407	5.73e5	inactive
26	TfIIFbeta (Transcription factor TFIIFbeta)	DRSC16884		5560	3.43e5	inactive
27	TfIIFbeta (Transcription factor TFIIFbeta)	DRSC21447		8374	4.08e5	inactive
28	CG7377	DRSC10830		6655	4.47e5	inactive
29	CG31210 (retired record) + CG4836	DRSC22066		9683	4.81e5	inactive
30	CG30430	DRSC22260		10476	8.79e5	inactive
31	CG15111	DRSC21467		10172	6.24e5	inactive
32	CG5250	DRSC15752		7979	4.48e5	inactive
33	CG15252	DRSC17981		5208	3.59e5	inactive
34	CG4733	DRSC15634		7646	3.64e5	inactive
35	Cyp4d8 (Cytochrome P450 4d8)	DRSC11131		7615	3.66e5	inactive
36	seq (sequoia)	DRSC06863		4459	2.18e5	inactive
37	ND-MNLL (NADH dehydrogenase (ubiquinone) MNLL subunit)	DRSC18159		5836	4.17e5	inactive
38	CG18190	DRSC06714		6000	3.80e5	inactive
39	MED21 (Mediator complex subunit 21)	DRSC20932		5250	3.58e5	inactive
40	CG6418	DRSC10633		9490	6.96e5	inactive
41	CG7168	DRSC16208		8090	2.64e5	inactive
42	CG7497	DRSC10857		9450	4.92e5	inactive
43	eIF4E6 (eukaryotic translation initiation factor 4E6)	DRSC14853		6830	4.31e5	inactive
44	dwg (deformed wings)	DRSC18766		7787	4.67e5	inactive
45	CG31380	DRSC15688		6412	2.81e5	inactive
46	Rift (Riboflavin transporter)	DRSC14330		5311	3.25e5	inactive
47	CG31441	DRSC15723		6706	4.13e5	inactive
48	Grx3 (Glutaredoxin 3)	DRSC02966		9262	1.22e6	inactive
49	CG10175	DRSC13628		6743	4.14e5	inactive
50	CG10175	DRSC14200		6940	3.23e5	inactive
51	CG10175	DRSC21981		10153	8.00e5	inactive
52	Tsp42Eg (Tetraspanin 42Eg)	DRSC06112		40949	1.48e6	inactive
53	CG5539	DRSC04510		7503	3.83e5	inactive
54	CG17199	DRSC15192		8143	3.67e5	inactive
55	mesh	DRSC14472		3056	4.09e5	inactive
56	mesh	DRSC15098		6466	3.85e5	inactive
57	mesh	DRSC15099		5832	3.15e5	inactive

9 entries already listed, ordered by “stable assay Renilla, run 1 (luminescence)”, low to high:
target	DRSC id	stable siRNA reporter change	stable assay Renilla, run 1 (luminescence)	stable assay firefly, run 1 (luminescence)	Outcome
MED21 (Mediator complex subunit 21)	DRSC20932		5250	3.58e5	inactive
Rift (Riboflavin transporter)	DRSC14330		5311	3.25e5	inactive
CG31380	DRSC15688		6412	2.81e5	inactive
CG31441	DRSC15723		6706	4.13e5	inactive
eIF4E6 (eukaryotic translation initiation factor 4E6)	DRSC14853		6830	4.31e5	inactive
dwg (deformed wings)	DRSC18766		7787	4.67e5	inactive
CG7168	DRSC16208		8090	2.64e5	inactive
CG7497	DRSC10857		9450	4.92e5	inactive
CG6418	DRSC10633		9490	6.96e5	inactive
